# Some of the results follow. These are further read-outs of the screen, such as a control signal, another cell line or another target. No call is given for them. Most of these compounds were active or inconclusive in the main read-out, so they are no random draw. Potencies come from curve fits of mixed quality, noted in brackets.
# Experiment: qHTS Assay to Find Inhibitors of Chronic Active B-Cell Receptor Signaling
# Conditions: ABC-DLBCL IkBa-CBG/CBR reporter, luminescence ratio (green luciferase fused to IkBa over red control in TMD8 lymphoma cells), 4 h
# Outline: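 Concentration-response series (up to 46 uM) were applied to TMD8 dual-reporter cells for 4 h at 37C with doxycycline. Green/red ratio, after filter-overlap correction, defined %Activity; red signal alone was normalised to basal cells and zero luminescence.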
# [1] = measured here: CBR red luminescence, cell number
# [2] = measured here: IkBa-CBG green luminescence
SMILES,AC50 [1],AC50 [2]
O=C(Nc1ccc2c(c1)OCO2)c1c(F)c(F)c(F)c(F)c1F,"16.4 µM [falling, single point]",
NC(=O)COC(=O)/C=C/c1ccc2ccccc2n1,"25.1 µM [falling, single point]","11.2 µM [rising, partial curve, poor fit]"
CC12CC(c3ccccc3O1)N(C(=O)c1ccc(Br)o1)C(=O)N2c1ccccc1 (centres undefined),"5.8 µM [falling, single point]",
CCCC(=O)NC(c1ccccc1Cl)c1ccc2cccnc2c1O (centres undefined),"4.47 µM [falling, partial curve, poor fit]",
Cc1ccc(C(NC(=O)N2CC(C)OC(C)C2)C(Cl)Cl)cc1F (centres undefined),"1.3 µM [falling, full curve, poor fit]",
CCOc1cc(S(=O)(=O)N2CCOCC2)ccc1F,"29.1 µM [rising, single point]",
O=C(NCc1ccccc1)c1ccc(S(=O)(=O)N2CCCc3ccccc32)cc1,"3.55 µM [rising, single point]",
CC(C)CC1NC(=O)c2ccccc2-n2c1nc1cc(F)ccc1c2=O (centres undefined),"18.4 µM [rising, single point]",
CCN(CC)C(=O)CSc1nc2ccccc2c(=O)n1Cc1ccco1,"0.794 µM [falling, full curve, poor fit]",
Cc1ccc(NC(=O)Cn2c(-c3cncs3)nc3ccccc32)cc1Br,"0.562 µM [rising, partial curve, poor fit]",
C/C(=C\C(=O)c1ccccc1)NNC(=O)c1ccc(Cl)cc1,"12.6 µM [falling, partial curve, poor fit]",
CC(C)NC(=O)NC(=O)CSc1nnc(COc2ccccc2F)n1C(C)C1CC2CCC1C2 (centres undefined),"20 µM [falling, single point]",
CCCc1nccn1S(=O)(=O)c1cc(Br)ccc1OC,"6.31 µM [rising, single point]",
COc1ccc(C)cc1S(=O)(=O)N1CCN(S(=O)(=O)c2cc(C)ccc2OC)C(C)C1 (centres undefined),"20.6 µM [rising, single point]",
COc1ccc(-n2ncc3c(NCC(C)C)ncnc32)cc1,"0.517 µM [rising, full curve]",
O=C(NCCc1cccc(Cl)c1)c1ccc(Cl)c([N+](=O)[O-])c1,,"20.6 µM [rising, partial curve, poor fit]"
COc1ccc(NC(=S)NC(=O)c2csnn2)cc1,"0.794 µM [falling, full curve]",
CCN1CCN(CCCNC(=O)C2CCCN(c3nc4c(C)cc(C)cc4s3)C2)CC1 (centres undefined),"22.4 µM [falling, single point]",
COc1ccc(/C=C/C(=O)c2ccc(Cl)cc2)c(OC)c1,"35.5 µM [falling, single point]",
O=C(NCc1ccc(F)cc1)c1cc2sccc2n1Cc1ccc(F)cc1,"11.6 µM [rising, partial curve, poor fit]",

# Eight compounds from above, arranged by heavy-atom count, ascending.
SMILES,AC50 [1],AC50 [2]
NC(=O)COC(=O)/C=C/c1ccc2ccccc2n1,"25.1 µM [falling, single point]","11.2 µM [rising, partial curve, poor fit]"
COc1ccc(/C=C/C(=O)c2ccc(Cl)cc2)c(OC)c1,"35.5 µM [falling, single point]",
C/C(=C\C(=O)c1ccccc1)NNC(=O)c1ccc(Cl)cc1,"12.6 µM [falling, partial curve, poor fit]",
O=C(Nc1ccc2c(c1)OCO2)c1c(F)c(F)c(F)c(F)c1F,"16.4 µM [falling, single point]",
CCN(CC)C(=O)CSc1nc2ccccc2c(=O)n1Cc1ccco1,"0.794 µM [falling, full curve, poor fit]",
O=C(NCc1ccc(F)cc1)c1cc2sccc2n1Cc1ccc(F)cc1,"11.6 µM [rising, partial curve, poor fit]",
CC12CC(c3ccccc3O1)N(C(=O)c1ccc(Br)o1)C(=O)N2c1ccccc1 (centres undefined),"5.8 µM [falling, single point]",
COc1ccc(C)cc1S(=O)(=O)N1CCN(S(=O)(=O)c2cc(C)ccc2OC)C(C)C1 (centres undefined),"20.6 µM [rising, single point]",

# The list continues:

SMILES,AC50 [1],AC50 [2]
CCOC(=O)C(=NC1CCCCC1)NNc1cccc(C(F)(F)F)c1,"11.6 µM [rising, partial curve]",
Clc1cnc(N/N=C/c2ccco2)c(Cl)c1,"18.4 µM [falling, partial curve]","20.6 µM [falling, single point]"
O=C(NCc1ccc(F)cc1)c1ccc(S(=O)(=O)Nc2cccc(C(F)(F)F)c2)cc1,"23.1 µM [falling, single point]",
CCC(CO)Oc1cc(NC(=O)c2cccc3ccccc23)c2ncn(C(C)C)c2c1 (centres undefined),"32.6 µM [falling, single point]",
COc1ccc(OCCNC(=O)/C=C/c2ccccc2)cc1,"12.6 µM [rising, partial curve]",
CS(=O)(=O)c1ccc(Cl)c(NC(=O)COC(=O)CNC(=O)c2ccccc2)c1,"31.6 µM [rising, single point]",
CC(C)(C)c1ccc(OCC(=O)Nc2ccc3c4c(cccc24)C(=O)NC3=O)cc1,"3.16 µM [rising, partial curve]","6.31 µM [falling, single point]"
Cc1nc(C(=O)NCCCO)cc2c1[nH]c1ccccc12,"17.8 µM [falling, single point]",
CCOC(=O)CSc1nc(C)c2cccc(C)c2n1,"3.55 µM [rising, single point]","15.8 µM [falling, partial curve]"
CC(=O)c1ccc(N2CCN(C(=O)c3noc4c3CSc3ccccc3-4)CC2)cc1,"20 µM [falling, single point]",
CN(CC(=O)NC(=O)NC1CCCCC1)CC(=O)Nc1ccc(OC(F)(F)F)cc1,"9.2 µM [falling, partial curve, poor fit]",
Cc1ccc(-c2nc3cc(C)ccc3o2)cc1,"32.6 µM [falling, single point]",
CC(/C=C/c1ccc(N(C)C)cc1)=N\N=C(/N)SC1CC(=O)N(c2ccc(C(=O)O)cc2)C1=O (centres undefined),"0.58 µM [falling, full curve, poor fit]",
Nc1cc2ccncc2c2ccccc12,"1.26 µM [falling, full curve, poor fit]",
COc1ccc(-c2nnc(Nc3ccc(CC(N)=O)cc3)c3ccccc23)cc1,"18.4 µM [falling, partial curve]",
C/C(=N\Nc1cc(N2CCOCC2)nc(C)n1)c1ccc(F)cc1,"5.62 µM [rising, single point]",
O=c1c2ccccc2c(-c2n[nH]c(=S)o2)nn1Cc1ccccc1,"10 µM [falling, partial curve]",
CCC(Sc1nnnn1C)C(=O)Nc1ccc(C(C)=O)cc1 (centres undefined),"23.1 µM [rising, partial curve, poor fit]",
CC(=O)Nc1ccc(C2=CC(=O)C[C@H](c3ccc(Cl)cc3)C2)cc1,"32.6 µM [falling, partial curve, poor fit]",
CCOC(=O)COc1c(OC)cc(Cl)cc1C1Nc2ccccc2C(=O)N1c1ccccc1 (centres undefined),"16.4 µM [falling, single point]",

# Reference: PubChem BioAssay AID493014 (National Center for Advancing Translational Sciences (NCATS), 2011)
